Publication PMC6797205

Columns and labels:
[1] = molecular target: CaARF L492A/L493A (mutated in the LPLLPS EAR-like motif), MBP-tagged (Chlorokybus atmophyticus); test: pull-down; co-purification: MBP-tagged CaARF (wt or mutants, 90 ug) mixed with His-tagged AtTPL202 (or mutant, 70 ug) for 1 h at 4 C in CAPS 20 mM pH 9.6, Tris-HCl 100 mM pH 8, NaCl 50 mM, TCEP 1 mM; complexes held through MBP on Dextrin-Sepharose, washed, eluted with 10 mM maltose, SDS-PAGE; both purified
[2] = molecular target: CaARF L523S/F524S (mutated in the KLFG BRD motif), MBP-tagged (Chlorokybus atmophyticus); test: as above

binding [1]: binds | binding [2]: binds
B1: A. thaliana TOPLESS N-terminal region (AtTPL202), His-tagged (domain or fragment, UniProt Q94AI7 3-184)
chain: SLSRELVFLILQFLDEEKFKETVHKLEQESGFFFNMKYFEDEVHNGNWDEVEKYLSGFTKVDDNRYSMKIFFEIRKQKYLEALDKHDRPKAVDILVKDLKVFSTFNEELFKEITQLLTLENFRENEQLSKYGDTKSARAIMLVELKKLIEANPLFRDKLQFPTLRNSRLRTLINQSLNWQHQ

These are yes or no findings as the source states them, for the method shown. Binding seen in cells or lysates may run through a third protein. A result given as binding can be weak or reduced; the word gives no strength. Sequences can lack the tags named with a protein.
